Experimental data taken from PubChem BioAssay AID504467 (National Center for Advancing Translational Sciences (NCATS), 2011).
Among all 330,000 compounds or so, about 7,700 (2.3%) were called active. This list was built around the results that the source calls inconclusive (neither active nor inactive); the mix of calls is not that of the screen. The call rests on the fitted dose curve; in most records, active means well fitted inhibition curve with a large enough effect; inconclusive means small, poorly fitted or top-dose-only effect, or effect the other way; inactive means flat fitted curve, though single readings scatter. A potency beside an inconclusive call is a rough fit, not a confirmed value.

assay: qHTS screen for small molecules that inhibit ELG1-dependent DNA repair in human embryonic kidney (HEK293T) cells expressing luciferase-tagged ELG1; details: HEK293T ELG1-luciferase reporter, luminescence, 16 h, DNA damage induced by 5-fluorouridine; activity change, negative = inhibition: at 46.1 µM (top of the series); further: nearly all actives have a fitted effect of over 55% in size
In short: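 In this reporter screen, reduction of luminescence relative to DMSO vehicle indicated activity. Compounds and 5-fluorouridine were added together to 2,000 cells per well, incubated for 16 hr at 37 °C, then developed with ONE-Glo.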
On the % scale 0 is the no-effect control and ±100 the full control effect; potency means the concentration at half of the fitted maximal effect.

Row | SMILES | activity change, negative = inhibition | Potency
1 | CC(C)CN1C(=O)C(=O)N(CC(=O)c2ccc[nH]2)C1=O | inactive: 32% | –
2 | C/C(=N/OC(=O)c1ccccc1Br)c1ccc(C)cc1 | – | inconclusive: 20 µM [activator, single point]
3 | CCc1ccc(-c2nc(CS(=O)CC(=O)NC3CC3)c(C)o2)cc1 (stereo not given) | – | inconclusive: 10.3 µM [activator, partial curve, poor fit]
4 | CCCCOc1cccc(C(=O)Nc2ccc(N3CCN(CC)CC3)cc2)c1 | – | inconclusive: 20 µM [activator, single point]
5 | O=[N+]([O-])c1ccc(-n2nnnc2-c2ccccc2)c([N+](=O)[O-])c1 | – | inconclusive: 29.1 µM [inhibitor, single point]
6 | CCCCNC(=S)NCC(c1ccccc1)c1c[nH]c2ccccc12 (stereo not given) | inactive: -27.6% | –
7 | CCC(O)(CC)C(=O)N/N=C/c1cc(Br)cc(Br)c1O | – | active: 23.1 µM
8 | COc1cc(OC)cc(C(=O)Nn2cc(C(=O)Nc3ccc(F)cc3F)c3ccccc3c2=O)c1 | – | inconclusive: 10.3 µM [inhibitor, partial curve]
9 | C=CCNC(=S)Nc1c(N)n(C)c(=O)n(C)c1=O | inactive: 0.983% | –
10 | COc1ccccc1CCC(=O)Nc1cccc(S(=O)(=O)N2CCCCCC2)c1 | – | inconclusive: 5.17 µM [inhibitor, single point]
11 | S=C(N/N=C/c1ccco1)NC1CC2CCC1C2 (stereo not given) | – | inconclusive: 23.1 µM [activator, partial curve]
12 | O=C(C1CCN(S(=O)(=O)c2cccs2)CC1)N1CCCCCC1 | – | inconclusive: 18.4 µM [activator, partial curve, poor fit]
13 | CN(c1nc(-c2ccccc2)cs1)C1CCS(=O)(=O)C1 (stereo not given) | – | inconclusive: 29.1 µM [activator, single point]
14 | COc1ccc(C2CC(c3ccccc3OC(C)=O)=NN2C(=O)/C=C/c2ccccc2)cc1 (stereo not given) | – | inconclusive: 25.9 µM [inhibitor, partial curve, poor fit]
15 | Cc1cc(C(=O)CSc2nnc(-c3cccnc3)n2-c2ccccc2)c(C)n1CC1CCCO1 (stereo not given) | – | inconclusive: 10.3 µM [activator, partial curve]
16 | O=C1CSC(c2cccnc2)N1c1ccccc1 (stereo not given) | inactive: -14% | –
17 | CCOC(=O)Cn1cnc2scc(-c3ccc(C)c(C)c3)c2c1=O | – | inconclusive: 18.3 µM [inhibitor, single point]
18 | CCCC(=O)NC(c1ccc(OC)cc1)c1c(O)ccc2ccccc12 (stereo not given) | – | inconclusive: 29.1 µM [inhibitor, single point]
19 | CCc1nnc(NC(=O)c2cccs2)s1 | – | inconclusive: 18.4 µM [activator, partial curve]
20 | O=C(Nc1ccc(C(=O)N2CCN(c3ccccc3F)CC2)cc1)C1=CSCCO1 | – | inconclusive: 32.6 µM [activator, partial curve, poor fit]
21 | CN(C)c1ccc2c(c1)OC(N)=C(C#N)C2c1cccc(F)c1 (stereo not given) | inactive: -8.99% | –
22 | CC(=O)Nc1c(S(=O)(=O)c2ccccc2)c2nc3ccccc3nc2n1Cc1ccccc1 | inactive: -0.55% | –
23 | CCN1CCSc2ccc(C(=O)NCc3cc(Br)ccc3OC)cc21 | inactive: -6.97% | –
24 | CCOC(=O)c1cc(C)nc(S(C)(=O)=O)c1C#N | inconclusive: 165% [activator] | –

Ordered by heavy-atom count (smallest number first): part of the list above.
Row | SMILES | activity change, negative = inhibition | Potency
9 | C=CCNC(=S)Nc1c(N)n(C)c(=O)n(C)c1=O | inactive: 0.983% | –
2 | C/C(=N/OC(=O)c1ccccc1Br)c1ccc(C)cc1 | – | inconclusive: 20 µM [activator, single point]
23 | CCN1CCSc2ccc(C(=O)NCc3cc(Br)ccc3OC)cc21 | inactive: -6.97% | –
8 | COc1cc(OC)cc(C(=O)Nn2cc(C(=O)Nc3ccc(F)cc3F)c3ccccc3c2=O)c1 | – | inconclusive: 10.3 µM [inhibitor, partial curve]

Going on with the list.

Row | SMILES | activity change, negative = inhibition | Potency
25 | COc1ccc(OCCN2C(=O)c3ccccc3C2=O)c([N+](=O)[O-])c1 | – | inconclusive: 29.1 µM [activator, single point]
26 | Cn1cc(CN(Cc2ccccn2)C[C@@H]2CCC(=O)N2)c(-c2ccccc2F)n1 | inactive: 8.7% | –
27 | COc1ccc(C(=O)NCC(=O)OCc2ccccc2F)cc1 | – | inconclusive: 29.1 µM [activator, partial curve, poor fit]
28 | Cn1ncc(Cl)c1C(=O)Nc1sc2c(c1C(N)=O)CCC2 | – | inconclusive: 9.2 µM [inhibitor, partial curve]
29 | O=S(=O)(c1ccc(NC(=S)NCCC(c2ccccc2)c2ccccc2)cc1)N1CCOCC1 | – | active: 18.4 µM
30 | NC(=O)CC(NC(=O)c1cccc(Br)c1)c1ccc(NC2CCC2)c([N+](=O)[O-])c1 (stereo not given) | inactive: 7.47% | –
31 | Cc1nn(C)cc1CNC(=O)C1C2CCC(O2)C1C(=O)O (stereo not given) | – | inconclusive: 18.4 µM [activator, partial curve]
32 | CCNC(=O)NC(=O)C(C)Sc1nc2cc(C(=O)OC)ccc2c(=O)n1-c1ccccc1 (stereo not given) | – | inconclusive: 23.1 µM [inhibitor, partial curve, poor fit]
33 | Cc1noc(/C=C/c2ccco2)c1S(=O)(=O)N1CCC(C(=O)Nc2ccc(Cl)cn2)CC1 | – | active: 5.8 µM
34 | O=C(Cc1ccccc1)Nc1ccc(NC(=S)NC(=O)c2ccccc2)cc1 | inactive: -15.5% | –
35 | COc1cccc(-n2nnnc2S(C)(=O)=O)c1 | – | inconclusive: 32.6 µM [inhibitor, single point]
36 | CCCCn1c(N)c(-c2nc3ccccc3s2)c2c([N+](=O)[O-])nn(C)c(=O)c21 | – | active: 1.03 µM
37 | Cc1ccc(-c2nnn3c2nc(NCCc2ccc(S(N)(=O)=O)cc2)c2ccccc23)cc1 | – | inconclusive: 3.66 µM [activator, single point]
38 | CCn1cc(Br)c(C(=O)Nc2nccs2)n1 | – | inconclusive: 23.1 µM [activator, single point]
39 | COc1ccc(NC(=O)c2ccccc2Oc2ccccc2)cc1 | inactive: -11.1% | –
40 | CCOc1ccc(NC(=O)CCN2CCN(c3ccccc3F)CC2)cc1 | – | inconclusive: 32.6 µM [inhibitor, partial curve, poor fit]
41 | COc1ccc(Cl)cc1NC(=O)CN(C)C(=O)c1cn2ccccc2n1 | – | inconclusive: 9.2 µM [inhibitor, partial curve]
42 | COc1cc2c(cc1OC)CN(C(=O)c1ccc(N3CCCC3)c([N+](=O)[O-])c1)CC2 | – | inconclusive: 29.1 µM [inhibitor, single point]
43 | COc1ccccc1NC(=O)c1ccc(-c2nn(C)c(=O)c3ccccc23)cc1 | – | inconclusive: 29.1 µM [inhibitor, single point]
44 | COc1cc(CN2CCCC(N3CCc4ccccc4C3)C2)c(Cl)cc1O (stereo not given) | inactive: -0.551% | –
45 | O=C1CC(NS(=O)(=O)c2ccc(F)cc2)CN1c1ccc2c(c1)OCCO2 (stereo not given) | – | inconclusive: 29.1 µM [activator, partial curve, poor fit]
46 | Cc1ccc(C(=O)N2CCN(c3ccccc3)CC2)cc1S(=O)(=O)N1CCOCC1 | inactive: -6.37% | –
47 | CCOc1ccc(C(=O)NCCc2ccccc2)cc1 | – | inconclusive: 2.06 µM [activator, partial curve]
48 | CCOc1ccccc1N1C(=O)CN(Cc2ccc(OC)c(OC)c2)C1=S | – | inconclusive: 29.1 µM [inhibitor, single point]

Row | SMILES | activity change, negative = inhibition | Potency
49 | CC(/C=C/c1ccccc1F)=N\NC(=O)C(C)C | – | inconclusive: 20.6 µM [activator, partial curve]
50 | O=C(CNC(=O)c1cccc(N2C(=O)c3ccccc3C2=O)c1)Nc1ccc(F)c(F)c1 | – | inconclusive: 31.6 µM [activator, partial curve, poor fit]
51 | CC(C)C(C(=O)NCC1CCCO1)N(C(=O)CNS(=O)(=O)c1ccccc1)c1ccc(F)cc1 (stereo not given) | inactive: 9.48% | –
52 | CC(=O)N(Cc1cccnc1)c1cccc(-c2nc3ccccc3s2)c1 | – | inconclusive: 6.51 µM [inhibitor, full curve]
53 | Cc1ccc(S(=O)(=O)NCCn2nc(C)cc2C)cc1 | inactive: 13.6% | –
54 | CCCOc1ccc(NC(=O)OC2CCN(C)CC2)cc1 | – | inconclusive: 18.4 µM [activator, partial curve, poor fit]
55 | CN(C)S(=O)(=O)c1cccc(NC(=O)/C=C/c2ccc(S(=O)(=O)N3CCOCC3)cc2)c1 | – | active: 23.1 µM
56 | O=C(Nc1ccc(Nc2ccccc2)cc1)c1ccc(F)cc1 | – | inconclusive: 13 µM [activator, partial curve]
57 | O=C(NCc1cccnc1)c1cc(Sc2cccc(Cl)c2)nc2ccccc12 | – | inconclusive: 29.1 µM [inhibitor, single point]
58 | CCN(CC)S(=O)(=O)c1cc(OC)c(Cl)cc1OC | – | inconclusive: 4.61 µM [inhibitor, full curve]
59 | Fc1ccc(Nc2ccc(-c3ccc(F)cc3)nn2)cc1 | – | inconclusive: 5.8 µM [activator, full curve]
60 | Cn1c(=O)c2c(nc(CN3CCN(c4ccccc4)CC3)n2Cc2c(F)cccc2Cl)n(C)c1=O | – | active: 10 µM
61 | CC1CCN(CC(O)COc2ccc(OCC(O)CN3CCC(C)CC3)cc2)CC1 (stereo not given) | inactive: 1.31% | –
62 | CSc1ccccc1OCc1cc(C(=O)N(C)Cc2ccc3nsnc3c2)no1 | – | inconclusive: 2.31 µM [activator, partial curve]
63 | CC1(C)N=C(SCC(=O)Nc2ccc(Cl)cc2)C(c2ccc(Cl)cc2)=N1 | – | inconclusive: 20.6 µM [inhibitor, single point]
64 | COc1ccc(NS(=O)(=O)c2cccc(-c3nnc(-c4ccccc4)o3)c2)cc1 | – | inconclusive: 29.1 µM [inhibitor, single point]
65 | CCC(=O)n1nc(NCc2ccc(OC)c(OC)c2)nc1NCc1ccc(OC)c(OC)c1 | – | active: 10.3 µM
66 | c1ccc2c(N3CCCCC3)nc(N3CCCCC3)nc2c1 | inactive: -1.14% | –
67 | CCOc1ccc(S(=O)(=O)N2CCCC(C(=O)NCC3CCCO3)C2)cc1Cl (stereo not given) | inactive: -11.2% | –
68 | O=C(/C=C/c1ccco1)N1CCN(S(=O)(=O)/C=C/c2ccccc2)CC1 | – | inconclusive: 29.1 µM [inhibitor, single point]
69 | CCOc1ccccc1C(=O)Nc1ccccc1O | – | inconclusive: 2.31 µM [inhibitor, partial curve, poor fit]
70 | CCC(C)Sc1nc2c(c(=O)[nH]c(=O)n2C)n1CC(O)COc1ccccc1C (stereo not given) | – | active: 16.4 µM
